Results on two molecules are retold here after patent US6482805B2 (Parker Hughes Institute, priority 1998, dated 2002).

The test system of the data set is normal human endocervical epithelial cells. Type of data set: cell-based. Particulars: ratio of IC50 to EC50. The protocol: The potential cytotoxicity of aryl phosphate derivatives of bromo-methoxy ZDV in comparison to N-9, against normal human ectocervical and endocervical epithelial cells (Clonetics Corporation, San Diego, Calif.), was measured using MTT (3-[4,5-dimethylthiazol-2-yl]-2,5-diphenyl tetrazolium bromide) cell viability assays (Boehringer Mannheim Corp., Indianapolis, Ind.) [see, D'Cruz O J, et al., Mol Hum Reprod 1999; 5:421-432; D'Cruz O J, et al., Contraception 1999; 59 (in press); and Uckun F M, et al., Antimicrob Agents Chemther 1998; 42:383-388]. Briefly, exponentially growing ectocervical and endocervical epithelial cells were seeded into 96-well plate at a density of 2×10^5 cells/well and incubated for 24 h at 37° C. prior to drug exposure. On the day of treatment, culture medium was carefully aspirated from the wells and replaced with fresh medium containing drug concentrations ranging from 3.9 μM to 1000 μm. Triplicate wells were used for each treatment. The cells were incubated with the various compounds for 24 hours at 37° C. in a humidified 5% CO2 atmosphere. […] The absorbance of each well was measured in a microtiter reader at 540 nm and a reference wavelength of 690 nm. […] The percent cell survival was calculated using the formula: % survival=live cell number[test]/live cell number[control]×100. The results were expressed as IC50 values. […]

Consider `COC(=O)C(C)NP(=O)(OCC1OC(N2C(=O)NC(=O)C(C)(Br)C2OC)CC1N=[N+]=[N-])Oc1ccc(Br)cc1` (centres unmarked) [WHI-07, 5-Bromo-6-methoxy-5,6-dihydro-3′-azidothymidine-5′-(p-Bromophenyl Methoxyalaninyl Phosphate)], for which the “SI (endocervical cells)” value came to 62.4.

As to `CCCCCCCCCc1ccc(OCCOCCOCCOCCOCCOCCOCCOCCOCCO)cc1` [Compound N-9, nonoxynol-9, reference compound], the “SI (endocervical cells)” value is 0.19.
